Assay results: paper PMC7481418
These are yes or no findings as the source states them, for the method shown. In cells and extracts the contact can be indirect. Some entries that bind do so weakly or less than the wild type.

Amino acid sequences for entries named in this document (tags omitted).
UniProt P28698: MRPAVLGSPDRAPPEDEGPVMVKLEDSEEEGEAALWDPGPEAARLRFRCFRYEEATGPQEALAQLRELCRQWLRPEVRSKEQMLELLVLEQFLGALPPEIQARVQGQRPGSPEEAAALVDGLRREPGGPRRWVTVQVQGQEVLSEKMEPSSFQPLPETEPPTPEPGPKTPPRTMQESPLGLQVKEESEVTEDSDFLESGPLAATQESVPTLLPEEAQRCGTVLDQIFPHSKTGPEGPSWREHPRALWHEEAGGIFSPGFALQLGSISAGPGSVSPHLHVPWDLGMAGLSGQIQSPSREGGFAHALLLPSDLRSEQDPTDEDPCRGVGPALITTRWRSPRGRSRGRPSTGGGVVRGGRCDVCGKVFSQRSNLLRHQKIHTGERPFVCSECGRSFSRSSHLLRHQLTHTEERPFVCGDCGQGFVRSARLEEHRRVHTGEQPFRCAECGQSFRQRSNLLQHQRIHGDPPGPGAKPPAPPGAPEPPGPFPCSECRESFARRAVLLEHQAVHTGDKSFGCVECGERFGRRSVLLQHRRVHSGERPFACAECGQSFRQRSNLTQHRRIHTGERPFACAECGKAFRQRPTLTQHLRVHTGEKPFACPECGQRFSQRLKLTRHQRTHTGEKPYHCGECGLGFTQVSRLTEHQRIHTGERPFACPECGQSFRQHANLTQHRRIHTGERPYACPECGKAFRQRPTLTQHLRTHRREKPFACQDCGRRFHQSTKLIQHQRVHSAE
UniProt Q9UNE7: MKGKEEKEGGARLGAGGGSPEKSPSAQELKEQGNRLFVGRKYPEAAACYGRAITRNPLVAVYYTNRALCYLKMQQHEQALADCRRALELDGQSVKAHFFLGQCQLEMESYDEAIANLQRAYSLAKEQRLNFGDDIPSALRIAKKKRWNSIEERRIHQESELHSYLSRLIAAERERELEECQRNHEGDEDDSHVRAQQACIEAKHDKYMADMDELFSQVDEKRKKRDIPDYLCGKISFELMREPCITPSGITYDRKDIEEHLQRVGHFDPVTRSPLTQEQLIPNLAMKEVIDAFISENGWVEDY

Molecular target: myeloid zinc finger 1 (MZF1) (human (endogenous in BxPC-3 and PANC-1)) (UniProt P28698)
Assay: co-IP; lysates of BxPC-3/PANC-1 cells transfected with vector or MTSS1-AS overexpression plasmid, cultured in normal (pH 7.4) or acidic (pH 6.8) medium; precipitated overnight at 4 °C with anti-MZF1 or anti-STUB1 (4 μg/mL; control IgG) and Protein A/G PLUS-Agarose; Western blot with anti-MZF1 and anti-STUB1

- binding: binds
Substance: STIP1 homology and U-box containing protein 1 (STUB1) (from UniProt Q9UNE7 1-303) (enzyme)
